Reference: article PMC3517537
These are yes or no findings as the source states them, for the method shown. Binding seen in cells or lysates may run through a third protein. A result given as binding can be weak or reduced; the word gives no strength.

Molecular target: taxol-stabilized microtubules (Cytoskeleton Inc)
Assay: co-sedimentation; 10 µl 35S-labeled in vitro translated protein with 50 µg Taxol-stabilized microtubules or Taxol-containing buffer, 100 µl, 30 min 37°C; 30 min at 100,000 g; supernatant and pellet by autoradiography; only the target purified

B1: in vitro translated 35S-labeled GTSE1 WT (protein, UniProt Q9NYZ3 1-739)
chain: MEGGGGRDEPSACRAGDVNMDDPKKEDILLLADEKFDFDLSLSSSSANEDDEVFFGPFGHKERCIAASLELNNPVPEQPPLPTSESPFAWSPLAGEKFVEVYKEAHLLALHIESSSRNQAAQAAKPEDPRSQGVERFIQESKLKINLFEKEKEMKKSPTSLKRETYYLSDSPLLGPPVGEPRLLASSPALPSSGAQARLTRAPGPPHSAHALPRESCTAHAASQAATQRKPGTKLLLPRAASVRGRSIPGAAEKPKKEIPASPSRTKIPAEKESHRDVLPDKPAPGAVNVPAAGSHLGQGKRAIPVPNKLGLKKTLLKAPGSTSNLARKSSSGPVWSGASSACTSPAVGKAKSSEFASIPANSSRPLSNISKSGRMGPAMLRPALPAGPVGASSWQAKRVDVSELAAEQLTAPPSASPTQPQTPEGGGQWLNSSCAWSESSQLNKTRSIRRRDSCLNSKTKVMPTPTNQFKIPKFSIGDSPDSSTPKLSRAQRPQSCTSVGRVTVHSTPVRRSSGPAPQSLLSAWRVSALPTPASRRCSGLPPMTPKTMPRAVGSPLCVPARRRSSEPRKNSAMRTEPTRESNRKTDSRLVDVSPDRGSPPSRVPQALNFSPEESDSTFSKSTATEVAREEAKPGGDAAPSEALLVDIKLEPLAVTPDAASQPLIDLPLIDFCDTPEAHVAVGSESRPLIDLMTNTPDMNKNVAKPSPVVGQLIDLSSPLIQLSPEADKENVDSPLLKF
modifications: 35S-labeled
In the case of B1, the binding is reported as “binds”.
